{
  "source": "PubChem BioAssay AID1688",
  "about": "(National Center for Advancing Translational Sciences (NCATS), 2009)",
  "note": "The whole screen tested about 220,000 compounds, of which about 2,400 (1.1%) were called active. The inconclusive results got no clear call from the source; some entries with a clear call stand among them for comparison. The call rests on the fitted dose curve; in most records, active means well fitted inhibition curve with a large enough effect; inconclusive means small, poorly fitted or top-dose-only effect, or effect the other way; inactive means no such curve, though single readings can be large or run the other way. Where the call is inconclusive, the potency comes from a doubtful curve fit. On the % scale 0 is the no-effect control and ±100 the full control effect; potency means the concentration at half of the fitted maximal effect.",
  "data": [
    {"assay": "qHTS Multiplex Assay to Identify Dual Action Probes in a Cell Model of Huntington: Aggregate Formation (GFP); further: nearly all actives have a fitted effect of over 60% in size", "details": "PC12 HttQ103-GFP aggregates, Acumen cytometry, 40 h; activity change, negative = inhibition: at 46.1 µM (top of the series) unless noted", "outline": "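Steps: seed 1500 PC12 HTTQ103-GFP cells/well; add tebufenozide, 100 nM final; add compound titration; add ATPLite reagent; quantify GFP aggregates by laser scanning cytometry.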", "values": [
      {"smiles": "Cc1ccc2nc(SCCCCOc3ccccc3)[nH]c2c1", "Potency": "inconclusive: 14.1 µM [inhibitor, single point]"},
      {"smiles": "CCOCC(=O)Nc1nc2ccc(OCC)cc2s1", "Potency": "inconclusive: 4.47 µM [inhibitor, single point]"},
      {"smiles": "N#CNC(=Nc1cccc(F)c1)SCc1cccc(F)c1", "Potency": "inconclusive: 31.6 µM [inhibitor, single point]"},
      {"smiles": "CN(CCO)CCOCCOc1cccc2ccccc12", "Potency": "inactive"},
      {"smiles": "COc1cc(C)c(CNc2cccc(C)c2)cc1C", "Potency": "inactive"},
      {"smiles": "COc1cc(NS(=O)(=O)c2ccc(NC(=S)NC(=O)c3sc4cc(F)ccc4c3Cl)cc2)nc(OC)n1", "Potency": "inconclusive: 8.91 µM [inhibitor, single point]"},
      {"smiles": "COC(=O)/C(=C1/Oc2cc(C)oc(=O)c2S1)C(F)(F)F", "Potency": "inconclusive: 28.2 µM [inhibitor, single point]"},
      {"smiles": "COc1ccc(-c2nc(NC(=O)CCNC(=O)c3ccco3)sc2C)cc1", "Potency": "inconclusive: 11.2 µM [inhibitor, partial curve]"},
      {"smiles": "O=C(Nc1nc2c(s1)CCCC2)c1ccc(Br)s1", "Potency": "inconclusive: 25.1 µM [inhibitor, single point]"},
      {"smiles": "O=C(COc1cccc(C(F)(F)F)c1)N1CCN(c2ccc(O)cc2)CC1", "Potency": "inconclusive: 10 µM [inhibitor, single point]"},
      {"smiles": "COc1cc(OC)cc(-c2nnc(Sc3ccc(C=O)cc3[N+](=O)[O-])o2)c1", "Potency": "inactive"},
      {"smiles": "CCCCn1c(CN(C)Cc2ccccc2)nc2c1c(=O)n(C)c(=O)n2C", "Potency": "active: 20 µM"},
      {"smiles": "CCCC(=O)N1CCN(c2ccc(NC(=O)c3ccc([N+](=O)[O-])o3)cc2)CC1", "Potency": "active: 22.4 µM"},
      {"smiles": "Cc1c(CCOC(=O)C23CC4CC(CC(C)(C4)C2)C3)sc[n+]1Cc1ccccc1", "Potency": "inconclusive: 35.5 µM [inhibitor, single point]"},
      {"smiles": "CC(=O)Nc1sc2c(c1C(c1ccccn1)N1CCN(C)CC1)CCCC2", "note": "(stereo not given)", "Potency": "inconclusive: 15.8 µM [inhibitor, single point]"},
      {"smiles": "O=C(CSc1nc2ccccc2[nH]1)NC1CCCc2ccccc21", "note": "(stereo not given)", "Potency": "inactive"},
      {"smiles": "O=C(Nc1ccccc1)C1=C(N2CCOCC2)/C(=C/c2cccnc2)CC1", "Potency": "inconclusive: 10 µM [activator, partial curve]"},
      {"smiles": "CCOC(=O)c1ccc(NC(=O)CCC(CC)C(=O)O)cc1", "note": "(stereo not given)", "Potency": "inactive"},
      {"smiles": "CCN1/C(=C\\c2ccc3cc(C)ccc3[n+]2CC)Sc2cc(C)c(C)cc21", "Potency": "active: 0.891 µM"},
      {"smiles": "COc1ccc(-n2cc(-c3ccc(C)cc3)[n+]3c2SCC3)cc1", "Potency": "inconclusive: 2.82 µM [inhibitor, partial curve]"},
      {"smiles": "COc1cccc(CN(C)CC(=O)Nc2sc3c(c2C#N)CCC3)c1OC", "Potency": "inconclusive: 15.8 µM [inhibitor, single point]"},
      {"smiles": "CC(C)Oc1ccc(C(=O)Nc2ccc(Cl)c(S(=O)(=O)Nc3ccc(Cl)cc3)c2)cc1", "Potency": "inconclusive: 35.5 µM [inhibitor, single point]"},
      {"smiles": "CCN(CC)c1ccc(NC(=O)CSc2ccsc2[N+](=O)[O-])c(C)c1", "Potency": "inconclusive: 31.6 µM [activator, single point]"},
      {"smiles": "CC1CCC(C(C)C)C(OC(=O)Cn2c(-c3ccc(F)cc3)[n+](C)c3ccccc32)C1", "note": "(stereo not given)", "Potency": "inconclusive: 35.5 µM [inhibitor, single point]"},
      {"smiles": "COc1ccccc1NC(=S)NNC(=O)c1ccc(Cl)cc1Cl", "Potency": "inconclusive: 22.4 µM [inhibitor, single point]"},
      {"smiles": "CC(C)CNc1cc(N2CCCC2)ccc1[N+](=O)[O-]", "Potency": "inconclusive: 35.5 µM [inhibitor, single point]"},
      {"smiles": "CC(=O)Nc1ccc(NC(=S)Nc2ccc(F)cc2)cc1", "Potency": "inactive"},
      {"smiles": "CCc1cccc(N=c2c([N+](=O)[O-])nn(-c3ccc(Cl)cc3)n2O)c1", "Potency": "inconclusive: 3.55 µM [inhibitor, single point]"},
      {"smiles": "Oc1ccc(C(c2nnnn2C2CCCCC2)N2CCOCC2)cc1", "note": "(stereo not given)", "Potency": "active: 2.82 µM"},
      {"smiles": "Cc1ccc(N=N/C(=C\\O)C(=O)c2ccc(Cl)cc2)cc1", "Potency": "inconclusive: 12.6 µM [inhibitor, partial curve]"},
      {"smiles": "COc1ccc(C(=O)NC(=S)Nc2nnn(C)n2)cc1", "Potency": "inactive"},
      {"smiles": "COC(=O)c1cc(C(=O)Nc2ccc(S(=O)(=O)NC(C)(C)C)cc2)cc([N+](=O)[O-])c1", "Potency": "inactive"},
      {"smiles": "Cc1ccc2nc(Cl)c(/C=N/NC(=O)c3ccccc3O)cc2c1", "Potency": "inconclusive: 14.1 µM [inhibitor, single point]"},
      {"smiles": "Cc1cc(/C=N/NC(N)=S)c(C)n1-c1ccc(Cl)c(Cl)c1", "Potency": "inconclusive: 35.5 µM [inhibitor, single point]"},
      {"smiles": "COc1ccc(C(=O)c2ccc(N3CCOCC3)cc2)c(OC)c1", "Potency": "inconclusive: 35.5 µM [inhibitor, single point]"},
      {"smiles": "S=C1NC(c2cccs2)=CC(c2ccc(Br)cc2)N1", "note": "(stereo not given)", "Potency": "inconclusive: 14.1 µM [inhibitor, single point]"},
      {"smiles": "CCCC(=O)N1CCN(c2ccc(NC(=S)NC(=O)c3cccc(C)c3)cc2)CC1", "Potency": "inactive"},
      {"smiles": "O=C(COc1ccc(/C=N/NS(=O)(=O)c2ccccc2)cc1)Nc1ccccc1", "Potency": "inconclusive: 2.82 µM [activator, single point]"},
      {"smiles": "O=C(O)c1cc(Cl)c2ccccc2c1O", "Potency": "inconclusive: 35.5 µM [inhibitor, single point]"},
      {"smiles": "Cc1ccc2nc(SCc3ccc([N+](=O)[O-])cc3)[nH]c2c1", "Potency": "inconclusive: 35.5 µM [inhibitor, single point]"},
      {"smiles": "COc1ccc(NC(=S)N(CCc2c(C)[nH]c3ccccc23)Cc2cccnc2)cc1", "Potency": "inactive"},
      {"smiles": "Cc1cc(NCCc2ccccc2F)n2ncnc2n1", "Potency": "inactive"},
      {"smiles": "COc1ccccc1NC(=O)CC1Nc2ccccc2NC1=O", "note": "(stereo not given)", "Potency": "inactive"},
      {"smiles": "Cc1cccc(N2CCN(C(=O)C3CCN(c4nnc(-n5cccc5)s4)CC3)CC2C)c1", "note": "(stereo not given)", "Potency": "inconclusive: 20 µM [inhibitor, single point]"},
      {"smiles": "Cc1ccc(NC(=S)N(CCCN2CCCC2)Cc2cccn2Cc2ccc(Cl)cc2)cc1Cl", "Potency": "inconclusive: 25.1 µM [inhibitor, single point]"},
      {"smiles": "O=c1cc2c(nn1Cc1c(Cl)cccc1Cl)-c1ccccc1CC2", "Potency": "inconclusive: 10 µM [inhibitor, partial curve]"},
      {"smiles": "O=c1[nH]c2ccc(NC(=S)Nc3ccc(Cl)cc3Cl)cc2[nH]1", "Potency": "inactive"},
      {"smiles": "O=C(CN1CCOCC1)Nc1cccc(Br)c1", "Potency": "active: 3.16 µM"},
      {"smiles": "O=C(C1=NNCC1c1ccc(Cl)cc1)C1CO1", "note": "(stereo not given)", "Potency": "inconclusive: 35.5 µM [inhibitor, single point]"},
      {"smiles": "CC(C)NC(=O)c1cc2c(-c3ccc(Cl)cc3)nn(C)c2s1", "Potency": "inactive"},
      {"smiles": "CCOC(=O)/C(C)=C1\\NC(C)(C)Cc2ccccc21", "Potency": "inconclusive: 35.5 µM [inhibitor, single point]"},
      {"smiles": "CN(C)c1ccc([C@@H]2[C@@H]([N+](=O)[O-])[C@H]3C=Cc4ccccc4N3[C@H]2C(=O)c2ccc(Cl)cc2)cc1", "Potency": "inconclusive: 2.82 µM [inhibitor, partial curve, poor fit]"},
      {"smiles": "COc1ccc(C(=O)Nc2ccc(S(=O)(=O)N3CCCCC3C)cc2)c(OC)c1OC", "note": "(stereo not given)", "Potency": "inconclusive: 11.2 µM [inhibitor, partial curve]"},
      {"smiles": "CC(=O)Oc1ccc(Cl)cc1/C=C/c1cc(OC(C)=O)c2ccccc2n1", "Potency": "inconclusive: 4.47 µM [inhibitor, full curve, poor fit]"},
      {"smiles": "Cc1nc2ccc(NC(=O)C3CCN(S(=O)(=O)c4cccs4)CC3)cc2s1", "Potency": "inconclusive: 25.1 µM [inhibitor, single point]"},
      {"smiles": "CC(C)Oc1ccc(/C=N/NC(=O)C(CSCc2ccccc2)NC(=O)c2ccc([N+](=O)[O-])cc2)cc1", "note": "(stereo not given)", "Potency": "inconclusive: 0.282 µM [activator, full curve, poor fit]"},
      {"smiles": "COc1ccc(C(=O)/C=C/c2ccc(N3CCCCC3)c([N+](=O)[O-])c2)c(OC)c1", "Potency": "inconclusive: 35.5 µM [activator, single point]"},
      {"smiles": "CC(C)CCSc1nc2c(c(=O)[nH]c(=O)n2C)n1CCCc1ccccc1", "Potency": "inactive"},
      {"smiles": "Fc1ccc(Cn2nnnc2C(c2cccs2)N2CCCCCC2)cc1", "note": "(stereo not given)", "Potency": "inconclusive: 35.5 µM [inhibitor, single point]"},
      {"smiles": "COc1ccc(Cl)cc1NS(=O)(=O)c1ccc(OC)c(OC)c1", "Potency": "inactive"},
      {"smiles": "COc1ccc2nc(NC(=S)N(C)C)sc2c1", "Potency": "inconclusive: 3.16 µM [inhibitor, single point]"},
      {"smiles": "CCc1ccccc1NC(=O)C1c2ccccc2Oc2ccccc21", "Potency": "inconclusive: 12.6 µM [activator, partial curve, poor fit]"},
      {"smiles": "O=C(c1ccc(N2CCCC2=O)cc1)N1CCN(c2ccccc2)CC1", "Potency": "inactive"},
      {"smiles": "COc1ccc2c(c1OC)C(=O)N1c3ccccc3C(=O)N(c3ccccc3F)C21", "note": "(stereo not given)", "Potency": "inconclusive: 35.5 µM [inhibitor, single point]"},
      {"smiles": "CC(=O)Nc1ccc(Oc2ccc(-c3noc(C)n3)cc2)cc1", "Potency": "inconclusive: 22.4 µM [inhibitor, partial curve]"},
      {"smiles": "FC(F)(F)c1nc2ccccc2n2c(-c3ccc(Cl)cc3)nnc12", "Potency": "inconclusive: 35.5 µM [inhibitor, single point]"},
      {"smiles": "CC1CC(C)CN(S(=O)(=O)c2ccc(C(=O)NCCCn3ccnc3)cc2)C1", "note": "(stereo not given)", "Potency": "active: 7.94 µM"},
      {"smiles": "Cc1ccc(-c2nn(-c3ccccc3)c3[nH]c(=O)c(CNCc4ccccc4)cc23)cc1", "Potency": "inconclusive: 11.2 µM [inhibitor, partial curve]"},
      {"smiles": "CC(=O)c1cnn(-c2c(Cl)cc(Cl)cc2Cl)c1C", "activity change, negative = inhibition": "inactive: 0.993% [at 9.22 µM]"},
      {"smiles": "O=S(=O)(Nc1ccccn1)c1cccc(S(=O)(=O)c2ccc(Cl)cc2)c1", "Potency": "inconclusive: 35.5 µM [inhibitor, single point]"}
    ]}
  ]
}
